# Results published in paper PMC4595766.
# No constants are given. Whether binding was seen depends on the method and setting. Binding seen in cells or lysates may run through a third protein. Some entries that bind do so weakly or less than the wild type. Sequences can lack the tags named with a protein.
# T1: Chp1-3FLAG (fission yeast) (UniProt Q10103)
# T1 sequence: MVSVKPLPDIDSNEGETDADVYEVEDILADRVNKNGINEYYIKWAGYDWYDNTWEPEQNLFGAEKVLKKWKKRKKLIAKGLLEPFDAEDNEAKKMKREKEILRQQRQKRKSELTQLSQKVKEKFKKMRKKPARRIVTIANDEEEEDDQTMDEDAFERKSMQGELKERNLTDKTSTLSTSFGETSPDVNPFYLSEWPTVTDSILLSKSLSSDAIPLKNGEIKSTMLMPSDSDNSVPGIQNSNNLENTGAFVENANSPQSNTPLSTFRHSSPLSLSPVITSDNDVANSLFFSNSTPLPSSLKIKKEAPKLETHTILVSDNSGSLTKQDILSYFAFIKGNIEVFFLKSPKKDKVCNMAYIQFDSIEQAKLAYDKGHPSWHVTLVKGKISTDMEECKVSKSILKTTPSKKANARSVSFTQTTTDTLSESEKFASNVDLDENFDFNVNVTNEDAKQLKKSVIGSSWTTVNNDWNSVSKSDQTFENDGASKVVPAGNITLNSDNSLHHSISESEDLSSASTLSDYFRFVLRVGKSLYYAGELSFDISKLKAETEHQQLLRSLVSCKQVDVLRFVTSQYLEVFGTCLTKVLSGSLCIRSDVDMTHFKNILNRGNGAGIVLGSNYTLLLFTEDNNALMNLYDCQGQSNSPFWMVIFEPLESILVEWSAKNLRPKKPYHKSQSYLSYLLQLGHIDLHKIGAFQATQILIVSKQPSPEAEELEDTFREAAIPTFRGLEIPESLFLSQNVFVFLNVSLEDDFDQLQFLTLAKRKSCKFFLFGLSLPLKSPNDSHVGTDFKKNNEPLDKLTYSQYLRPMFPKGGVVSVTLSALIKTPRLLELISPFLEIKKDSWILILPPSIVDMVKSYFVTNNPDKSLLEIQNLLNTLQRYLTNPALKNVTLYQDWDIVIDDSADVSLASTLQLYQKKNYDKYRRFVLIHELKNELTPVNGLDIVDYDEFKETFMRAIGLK
# T2: Sgf73 with a C-terminal triple HA tag (Sgf73-3HA) (fission yeast) (UniProt O94397)
# T2 sequence: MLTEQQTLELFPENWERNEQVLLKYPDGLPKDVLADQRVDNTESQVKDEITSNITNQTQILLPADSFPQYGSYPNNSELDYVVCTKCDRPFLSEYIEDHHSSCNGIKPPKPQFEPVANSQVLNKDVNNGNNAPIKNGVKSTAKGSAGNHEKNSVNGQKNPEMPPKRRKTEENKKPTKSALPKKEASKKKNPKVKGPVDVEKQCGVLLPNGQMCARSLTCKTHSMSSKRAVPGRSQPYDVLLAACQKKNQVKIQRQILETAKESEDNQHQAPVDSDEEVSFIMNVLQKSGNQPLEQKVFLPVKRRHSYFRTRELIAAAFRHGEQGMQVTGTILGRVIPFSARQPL
# T3: Tas3-3FLAG (fission yeast) (UniProt O94687)
# T3 sequence: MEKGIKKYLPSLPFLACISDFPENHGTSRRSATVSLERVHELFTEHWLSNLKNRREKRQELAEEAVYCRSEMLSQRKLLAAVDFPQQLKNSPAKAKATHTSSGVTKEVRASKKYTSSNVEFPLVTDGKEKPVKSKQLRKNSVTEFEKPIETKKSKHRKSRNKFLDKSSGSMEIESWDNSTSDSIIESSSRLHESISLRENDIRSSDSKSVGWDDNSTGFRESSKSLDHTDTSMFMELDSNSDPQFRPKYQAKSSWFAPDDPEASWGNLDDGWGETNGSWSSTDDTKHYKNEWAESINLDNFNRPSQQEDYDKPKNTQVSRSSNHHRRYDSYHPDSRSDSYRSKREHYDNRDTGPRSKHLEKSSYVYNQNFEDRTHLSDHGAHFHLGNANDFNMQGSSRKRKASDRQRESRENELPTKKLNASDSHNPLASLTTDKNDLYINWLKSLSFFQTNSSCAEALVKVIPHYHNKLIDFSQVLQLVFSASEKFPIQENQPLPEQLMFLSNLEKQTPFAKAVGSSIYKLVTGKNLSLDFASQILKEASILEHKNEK
# B1: Ago1 (Argonaute) (protein, UniProt O74957 1-834)
# chain: MSYKPSSEIALRPGYGGLGKQITLKANFFQIISLPNETINQYHVIVGDGSRVPRKQSQLIWNSKEVKQYFGSSWMNSVYDGRSMCWSKGDIADGTIKVNIGSESHPREIEFSIQKSSKINLHTLSQFVNSKYSSDPQVLSSIMFLDLLLKKKPSETLFGFMHSFFTGENGVSLGGGVEAWKGFYQSIRPNQGFMSVNVDISSSAFWRNDSLLQILMEYTDCSNVRDLTRFDLKRLSRKFRFLKVTCQHRNNVGTDLANRVYSIEGFSSKSASDSFFVRRLNGEEQKISVAEYFLENHNVRLQYPNLPCILVKNGAMLPIEFCFVVKGQRYTAKLNSDQTANMIRFAVQRPFERVQQIDDFVHQMDWDTDPYLTQYGMKIQKKMLEVPARVLETPSIRYGGDCIERPVSGRWNLRGKRFLDPPRAPIRSWAVMCFTSTRRLPMRGIENFLQTYVQTLTSLGINFVMKKPPVLYADIRGSVEELCITLYKKAEQVGNAPPDYLFFILDKNSPEPYGSIKRVCNTMLGVPSQCAISKHILQSKPQYCANLGMKINVKVGGINCSLIPKSNPLGNVPTLILGGDVYHPGVGATGVSIASIVASVDLNGCKYTAVSRSQPRHQEVIEGMKDIVVYLLQGFRAMTKQQPQRIIYFRDGTSEGQFLSVINDELSQIKEACHSLSPKYNPKILVCTTQKRHHARFFIKNKSDGDRNGNPLPGTIIEKHVTHPYQYDFYLISHPSLQGVSVPVHYTVLHDEIQMPPDQFQTLCYNLCYVYARATSAVSLVPPVYYAHLVSNLARYQDVTADDTFVETSEASMDQEVKPLLALSSKLKTKMWYM
# B2: Sgf73 with a C-terminal triple HA tag (Sgf73-3HA) (protein, UniProt O94397 1-344)
# chain: T2 sequence
# B3: Chp1 (protein, UniProt Q10103 1-960)
# chain: T1 sequence
# Experiments:
# Test in all cases: co-IP; extract of exponentially growing fission yeast cells (sgf73+ background) in Buffer 1 (1 M Tris-HCl pH 8.0, 167 mM NaCl, 1.2 mM EDTA, 1% TritonX-100, 0.1% Na-deoxycholate) with protease inhibitors; anti-FLAG M2 magnetic beads, or anti-HA antibody then protein A/G agarose, 6 h; Western blot; Ago1-Tas3 also tested in sgf73Δ cells (disrupted to a much lesser extent)
# [1] = biological target: T1, Chp1-3FLAG (fission yeast)
# [2] = biological target: T2, Sgf73 with a C-terminal triple HA tag (Sgf73-3HA) (fission yeast)
# [3] = biological target: T3, Tas3-3FLAG (fission yeast)
Binder,binding [1],binding [2],binding [3]
B1,binds,binds,binds
B2,binds,–,–
B3,–,–,binds
